Measurements taken from PMC9665402.

Columns and labels:
[1] = molecular target: T1, FliM, bacterial two-hybrid fusion (C. jejuni 81-176) (UniProt Q0PC73); assay: two-hybrid; bacterial two-hybrid (BTH): T25 and T18 fusions co-transformed into E. coli BTH101; spotted on LB plates with X-Gal and IPTG, 30°C, 24-48 hours; blue colonies show an interaction
T1 sequence: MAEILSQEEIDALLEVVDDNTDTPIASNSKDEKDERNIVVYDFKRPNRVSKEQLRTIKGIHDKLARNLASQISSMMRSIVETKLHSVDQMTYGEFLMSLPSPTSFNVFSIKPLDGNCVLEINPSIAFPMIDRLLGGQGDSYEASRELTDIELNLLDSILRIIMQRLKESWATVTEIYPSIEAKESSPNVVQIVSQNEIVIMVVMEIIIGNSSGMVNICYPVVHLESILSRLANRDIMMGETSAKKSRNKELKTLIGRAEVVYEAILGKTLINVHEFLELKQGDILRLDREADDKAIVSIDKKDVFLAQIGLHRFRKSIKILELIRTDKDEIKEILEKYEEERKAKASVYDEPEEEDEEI

[2] = molecular target: T2, FliY, bacterial two-hybrid fusion (C. jejuni 81-176) (UniProt Q0PC74); assay: as above
T2 sequence: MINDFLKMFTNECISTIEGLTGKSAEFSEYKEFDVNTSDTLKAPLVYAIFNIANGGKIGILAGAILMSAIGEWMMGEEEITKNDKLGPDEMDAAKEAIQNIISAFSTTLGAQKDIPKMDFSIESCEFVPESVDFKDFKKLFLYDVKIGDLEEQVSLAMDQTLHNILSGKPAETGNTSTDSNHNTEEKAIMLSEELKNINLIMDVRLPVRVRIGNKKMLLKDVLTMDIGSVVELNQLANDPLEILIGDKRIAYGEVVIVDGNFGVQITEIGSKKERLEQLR

[3] = molecular target: T3, CheA, bacterial two-hybrid fusion (C. jejuni 81-176) (UniProt Q0PBM2); assay: as above
T3 sequence: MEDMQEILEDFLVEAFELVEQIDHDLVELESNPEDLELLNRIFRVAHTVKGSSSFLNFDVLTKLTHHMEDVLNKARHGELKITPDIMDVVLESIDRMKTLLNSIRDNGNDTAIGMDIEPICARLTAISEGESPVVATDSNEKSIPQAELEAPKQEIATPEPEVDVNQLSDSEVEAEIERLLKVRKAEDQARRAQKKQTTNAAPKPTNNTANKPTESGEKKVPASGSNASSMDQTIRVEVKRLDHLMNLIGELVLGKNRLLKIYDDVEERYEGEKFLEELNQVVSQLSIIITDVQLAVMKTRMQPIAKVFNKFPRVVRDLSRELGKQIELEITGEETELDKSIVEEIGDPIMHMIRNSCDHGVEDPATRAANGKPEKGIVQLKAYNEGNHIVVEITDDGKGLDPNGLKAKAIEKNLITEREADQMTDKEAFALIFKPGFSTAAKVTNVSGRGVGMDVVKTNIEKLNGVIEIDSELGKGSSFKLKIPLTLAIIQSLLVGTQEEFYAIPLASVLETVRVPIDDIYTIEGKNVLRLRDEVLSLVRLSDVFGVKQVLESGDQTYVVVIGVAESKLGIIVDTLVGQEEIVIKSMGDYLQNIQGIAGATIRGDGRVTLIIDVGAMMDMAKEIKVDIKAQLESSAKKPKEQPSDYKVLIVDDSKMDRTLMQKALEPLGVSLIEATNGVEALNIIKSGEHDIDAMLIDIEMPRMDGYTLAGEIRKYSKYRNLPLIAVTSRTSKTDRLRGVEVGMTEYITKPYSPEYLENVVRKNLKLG

[4] = molecular target: T4, CheY fused with V5-tag (C. jejuni 81-176) (UniProt A1W0A5); assay: co-IP; called pull-down and co-IP: 3XFLAG-CheO and V5-tagged candidates from pG0407 in E. coli BL21; soluble lysate (50 mM Tris, 150 mM NaCl, 0.5% Triton X-100, pH 7.5) incubated overnight at 4°C with anti-V5 magnetic beads or ANTI-FLAG M2 gel, washed with TBS; western blot for FLAG and V5
T4 sequence: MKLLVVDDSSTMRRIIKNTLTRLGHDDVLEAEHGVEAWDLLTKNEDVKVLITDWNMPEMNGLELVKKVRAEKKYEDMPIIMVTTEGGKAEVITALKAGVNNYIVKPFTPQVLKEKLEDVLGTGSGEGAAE

[5] = molecular target: T5, FliM fused with V5-tag (C. jejuni 81-176) (UniProt Q0PC73); assay: as above
T5 sequence: T1 sequence

[6] = molecular target: T6, CheA fused with V5-tag (C. jejuni 81-176) (UniProt Q0PBM2); assay: as above
T6 sequence: T3 sequence

[7] = molecular target: T7, FliY fused with V5-tag (C. jejuni 81-176) (UniProt Q0PC74); assay: as above
T7 sequence: T2 sequence

| Substance | binding [1] | binding [2] | binding [3] | binding [4] | binding [5] | binding [6] | binding [7] |
| --- | --- | --- | --- | --- | --- | --- | --- |
| CheO (CJJ81176_1265), bacterial two-hybrid fusion (C. jejuni 81-176) | binds | binds | binds |  |  |  |  |
| CheO fused with 3X FLAG-tag (C. jejuni 81-176) |  |  |  | no binding | binds | binds | binds |

Results are given in words; binding and its absence hold for the method and conditions named. For some of these results: Binding can be weak; no strength is given. Where a sequence is shown, tags or fusion partners need not be part of it. For some of these results: In cells and extracts the contact can be indirect.
